Source: ChEMBL document CHEMBL3988442, “University of Dundee, Small-Polar-MMV Screening Library” (2021).

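Whole-parasite assay of Trypanosoma brucei over 72 hours; the read-out is not stated. Tested at 30 µM. Higher reads as stronger inhibition (inferred: compounds with an IC50 in retests scored well above the rest). Values scatter widely below zero; nearly all retest evidence comes from the higher of the two concentrations used. Size under these conditions: about 64,000 compounds, about 940 of them at 50% or above in at least one test.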

Results are given as percent effect.
How 0% and 100% were set is not recorded. Most values in the screen are low, and negative values occur.
This is an unselected part of the compounds tested.

| structure | effect |
|---|---|
| `CC(C)CN1CCC2(CC1)CN(C(=O)C(C)C)C2.O=C(O)C(F)(F)F` | -22.29 |
| `Cn1nccc1-c1nnn2c1COCC(CNCC1CC1)C2.O=C(O)C(F)(F)F.O=C(O)C(F)(F)F` (centres unmarked) | -62.62 |
| `Cc1cnn(C2CCCN(C(=O)Cc3cn4ccccc4n3)C2)c1` (centres unmarked) | 8.347 |
| `CSCC(CCO)NC(=O)Nc1ccc(Br)cc1` (centres unmarked) | -25.59 |
| `CCCc1n[nH]c(C2CN(C(=O)c3ccc4c(c3)COC4)CCO2)n1` (centres unmarked) | -19.92 |
| `Cn1ccc(CN2CCC(NC(=O)C3CCCCC3)CC2)cc1=O` | -2.288 |
| `O=c1cc(-c2cccnc2)nc(-c2ccc(CN3CC[C@@H](O)C3)cc2)[nH]1` | -45.3 |
| `Cc1noc(C)c1CN(C)C(=O)NCCOc1ccc(F)cc1F` | -37.74 |
| `Cn1cc(CC2CCN(C(=O)NCc3cn4ccsc4n3)C2)cn1` (centres unmarked) | -4.694 |
| `Cc1cccc(S(=O)(=O)N2Cc3c(CN(C)C)nn(C)c3C2)c1` | -27.64 |
| `CCOc1ccc(CCCC(=O)N2CCC(c3nnn[nH]3)CC2)cc1C` | -15.19 |
| `CNC(=O)NCC1CCC2(CCN(c3ncccn3)CC2)CO1` (centres unmarked) | -49.25 |
| `Cc1ccc2nc(CN(C)Cc3n[nH]c4c3CCCCC4)[nH]c2c1C` | 17.69 |
| `Cn1cccc1C(=O)N1CCc2ncnc(N3CCCC3)c2CC1` | 23.29 |
| `Fc1ccc(-c2cnc(CN3CCn4c(nnc4C4CC4)C3)o2)cc1` | 13.97 |
| `Cc1nc(C)n(CC2CCCN(CCc3ccccn3)C2)n1` (centres unmarked) | 10.71 |
| `Cc1ccc(CN2CCc3onc(C(=O)Nc4cccnc4)c3C2)o1.O=C(O)C(F)(F)F.O=C(O)C(F)(F)F` | -5.944 |
| `Cc1noc(C)c1CN(C)C(=O)NC(C)Cc1ccco1` (centres unmarked) | -29.13 |
| `CSC(C)C(=O)NCCCc1cc(N)n(-c2ccccc2)n1` (centres unmarked) | 14.08 |
| `O=C(O)C(F)(F)F.O=C(O)C(F)(F)F.O=C(O)C(F)(F)F.[H][C@]12CCN(Cc3cccnc3)[C@@]1([H])CC[C@@H](COCCN1CCCC1)O2` | -13.02 |
| `COCc1ncc(CN2CCC3(CCNCC3)CC2)cn1` | 4.013 |
| `CN1CCCC2(CCN(C(=O)Cc3cc4c(cc3Cl)OCCO4)C2)C1=O` (centres unmarked) | -95.75 |
| `Cc1nc(CN2CCCN(Cc3nccn3C(C)C)CC2)no1` | 20.36 |
| `CNC(=O)c1cn[nH]c1C1CCN(Cc2sccc2C)C1` (centres unmarked) | -8.568 |
| `Cc1cc(C2CCCN(C(=O)c3ccc(C)[nH]c3=O)C2)n[nH]1` (centres unmarked) | -38.88 |
| `CN1CC2(CCCN(Cc3ccccc3OCC(=O)O)C2)OC1=O` (centres unmarked) | -49.03 |
| `CC(C)c1ccc(CNC(C)c2ccc(S(=O)(=O)N(C)C)cc2)cc1` (centres unmarked) | 0.08338 |
| `CCOc1ccc2nc(CN3CCOC(CN)C3)ccc2c1` (centres unmarked) | 24.78 |
| `[H][C@]12CCN(c3ncccn3)C[C@]1(COC)CC[C@@H](N1CCOCC1)C2` | 19.17 |
| `O=C(O)C(c1ccc2c(c1)OCO2)N1CCCC1` (centres unmarked) | -25.68 |
| `[H][C@@]12CS(=O)(=O)C[C@]1([H])N(C(=O)c1ccc(C)cc1OC)CCN2CCOC` | -18.4 |
| `CC(C)OCCNC1(c2ccc(Cl)cc2)CCOCC1` | -31.05 |
| `CNc1snc(C)c1C(=O)N1CCCC(n2nc(C)nc2C)C1` (centres unmarked) | -7.564 |
| `CCOC(=O)CCCNc1nc(C(C)(C)C)nc2c1cnn2C` | -6.162 |
| `COCCN(Cc1ccoc1)S(=O)(=O)c1cccc(C(F)(F)F)c1` | -29.94 |
| `CN(Cc1cc(C2CC2)[nH]n1)Cc1cc2ccc(F)cc2[nH]c1=O` | 10.06 |
| `CCC(NC(=O)Cn1ccc(=O)n(C)c1=O)c1ccc(OC)cc1` (centres unmarked) | -25.42 |
| `CN(C)C(=O)NCc1cc(=O)n2c(n1)CN(Cc1ccoc1)CCC2.O=C(O)C(F)(F)F` | -46.36 |
| `CC(=O)NCc1ccc(-n2ccnc2C)nc1` | 4.875 |
| `N#Cc1ccc(NCCNc2ccc(C(F)(F)F)cn2)nc1` | 15.3 |
| `CC(C)(CNC(=O)Nc1cccc(-c2cccs2)c1)C(N)=O` | 17.46 |
| `O=C(O)C(F)(F)F.[H][C@@]12COC[C@]1([H])[C@H](OCc1csc(C)n1)CN2Cc1ccc(C)s1` | -8.753 |
| `Cn1cnc2c1C(COCC1CC1)CN(C(=O)c1cscn1)C2.O=C(O)C(F)(F)F` (centres unmarked) | -40.55 |
| `Cc1nc(NC(=O)C(C)S(C)(=O)=O)sc1Cc1ccc(F)cc1` (centres unmarked) | -42.69 |
| `Cc1ccccc1CNC(=O)Cn1nc(-c2ccc(F)cc2)oc1=O` | 13.56 |
| `CNC(=O)C1CN(C(=O)Cc2ccc(OC)cc2)Cc2cn(C)nc21` (centres unmarked) | -3.318 |
| `N#Cc1ccc(F)c(CN2CCCC2Cn2cccn2)c1` (centres unmarked) | 11.33 |
| `Nc1ncc(C(=O)N2CCC3(CCCO3)CC2)c(-c2ccccc2)n1` | -111.7 |
| `Cc1nc2n(n1)CC(Nc1cc(C(F)(F)F)nc3ncnn13)CC2` (centres unmarked) | 53.11 |
| `CN1CCN(Cc2cn3c(n2)CN(Cc2ccncc2)CC3)CC1` | -27.03 |
| `CNC(=O)c1cc2ccccc2n1C` | -36.34 |
| `CN(CCSc1nncn1CC(F)(F)F)c1ccccc1` | -111.9 |
| `CCCN(Cc1nc2ccccc2[nH]1)Cc1ccccc1OC` | 15.38 |
| `CC(C)Cc1noc(CN(C)C(=O)CCNC(=O)c2ccccc2F)n1` | -31.59 |

Some entries from above, unchanged:

{"structure": "CN1CC2(CCCN(Cc3ccccc3OCC(=O)O)C2)OC1=O", "stereo": "centres unmarked", "effect": -49.03}
{"structure": "O=C(O)C(F)(F)F.O=C(O)C(F)(F)F.O=C(O)C(F)(F)F.[H][C@]12CCN(Cc3cccnc3)[C@@]1([H])CC[C@@H](COCCN1CCCC1)O2", "effect": -13.02}
{"structure": "CN(CCSc1nncn1CC(F)(F)F)c1ccccc1", "effect": -111.9}
{"structure": "COCc1ncc(CN2CCC3(CCNCC3)CC2)cn1", "effect": 4.013}